Source: the supplement of paper PMC12067093, “Discovery and optimisation of a covalent ligand for TRIM25 and its application to targeted protein ubiquitination” (Chemical Science, 2025)
The list shows a part of the results.

By UniProt entry, the sequences of proteins in these tests, tags left out. Where a name states a change or a piece, a line headed by the entry shows the natural chain unless it says otherwise.
UniProt Q9NPR9: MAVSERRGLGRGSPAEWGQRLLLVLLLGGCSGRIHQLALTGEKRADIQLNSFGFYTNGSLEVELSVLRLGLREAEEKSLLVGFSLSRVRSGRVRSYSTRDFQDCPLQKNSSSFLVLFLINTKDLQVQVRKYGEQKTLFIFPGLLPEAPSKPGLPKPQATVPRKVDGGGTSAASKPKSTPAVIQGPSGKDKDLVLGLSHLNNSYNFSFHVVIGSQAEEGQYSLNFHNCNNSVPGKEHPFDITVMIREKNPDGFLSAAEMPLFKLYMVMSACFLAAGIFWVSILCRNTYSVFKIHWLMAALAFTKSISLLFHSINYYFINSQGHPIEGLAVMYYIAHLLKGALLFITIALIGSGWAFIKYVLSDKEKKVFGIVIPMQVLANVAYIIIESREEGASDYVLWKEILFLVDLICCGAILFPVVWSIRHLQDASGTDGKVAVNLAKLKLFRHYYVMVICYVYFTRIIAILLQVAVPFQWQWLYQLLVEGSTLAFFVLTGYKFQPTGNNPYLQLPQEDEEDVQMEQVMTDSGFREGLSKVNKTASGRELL
UniProt Q969Y2: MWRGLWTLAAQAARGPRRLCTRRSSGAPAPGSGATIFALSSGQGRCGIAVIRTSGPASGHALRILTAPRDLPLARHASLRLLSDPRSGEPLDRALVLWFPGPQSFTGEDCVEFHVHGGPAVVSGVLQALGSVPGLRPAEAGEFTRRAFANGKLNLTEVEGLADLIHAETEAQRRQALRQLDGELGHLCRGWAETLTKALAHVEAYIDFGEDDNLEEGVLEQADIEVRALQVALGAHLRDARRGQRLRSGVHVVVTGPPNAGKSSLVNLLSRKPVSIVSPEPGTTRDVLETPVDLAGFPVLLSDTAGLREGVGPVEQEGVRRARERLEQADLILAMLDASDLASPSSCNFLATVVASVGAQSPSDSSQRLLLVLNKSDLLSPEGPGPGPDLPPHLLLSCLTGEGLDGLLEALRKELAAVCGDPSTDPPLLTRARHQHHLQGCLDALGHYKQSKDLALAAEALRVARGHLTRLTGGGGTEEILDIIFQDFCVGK
UniProt P15170, whole entry, looked up: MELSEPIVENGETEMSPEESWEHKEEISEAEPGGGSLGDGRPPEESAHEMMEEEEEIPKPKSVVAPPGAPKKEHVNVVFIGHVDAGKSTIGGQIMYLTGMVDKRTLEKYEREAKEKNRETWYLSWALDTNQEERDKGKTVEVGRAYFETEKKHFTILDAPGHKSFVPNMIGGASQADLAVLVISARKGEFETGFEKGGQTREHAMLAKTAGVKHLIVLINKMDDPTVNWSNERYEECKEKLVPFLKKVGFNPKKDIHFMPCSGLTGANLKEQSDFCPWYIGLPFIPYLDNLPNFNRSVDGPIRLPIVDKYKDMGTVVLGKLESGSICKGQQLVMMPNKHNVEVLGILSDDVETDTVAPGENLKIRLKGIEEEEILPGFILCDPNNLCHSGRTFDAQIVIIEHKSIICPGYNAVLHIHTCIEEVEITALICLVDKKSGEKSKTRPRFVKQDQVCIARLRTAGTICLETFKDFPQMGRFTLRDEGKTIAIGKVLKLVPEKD
UniProt P21266: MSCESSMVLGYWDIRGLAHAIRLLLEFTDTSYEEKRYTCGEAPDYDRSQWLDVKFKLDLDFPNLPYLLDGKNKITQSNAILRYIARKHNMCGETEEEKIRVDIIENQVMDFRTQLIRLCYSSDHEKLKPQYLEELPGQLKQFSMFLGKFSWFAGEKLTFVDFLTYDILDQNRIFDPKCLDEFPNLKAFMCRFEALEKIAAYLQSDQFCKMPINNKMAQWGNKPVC
UniProt P55084: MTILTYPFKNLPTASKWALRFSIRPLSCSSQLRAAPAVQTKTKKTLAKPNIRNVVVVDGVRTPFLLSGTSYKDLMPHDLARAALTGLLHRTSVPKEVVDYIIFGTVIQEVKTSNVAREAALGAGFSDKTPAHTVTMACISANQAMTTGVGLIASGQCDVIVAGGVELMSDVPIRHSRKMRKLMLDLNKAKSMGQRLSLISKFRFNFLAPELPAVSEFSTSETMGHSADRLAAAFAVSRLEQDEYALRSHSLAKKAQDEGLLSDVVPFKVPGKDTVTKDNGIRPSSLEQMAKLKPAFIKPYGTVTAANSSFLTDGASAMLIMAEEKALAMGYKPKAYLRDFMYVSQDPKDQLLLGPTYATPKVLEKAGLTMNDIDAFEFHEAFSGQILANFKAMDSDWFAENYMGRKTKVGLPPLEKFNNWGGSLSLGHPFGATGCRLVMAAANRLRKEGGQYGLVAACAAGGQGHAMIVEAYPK
UniProt Q8TD30: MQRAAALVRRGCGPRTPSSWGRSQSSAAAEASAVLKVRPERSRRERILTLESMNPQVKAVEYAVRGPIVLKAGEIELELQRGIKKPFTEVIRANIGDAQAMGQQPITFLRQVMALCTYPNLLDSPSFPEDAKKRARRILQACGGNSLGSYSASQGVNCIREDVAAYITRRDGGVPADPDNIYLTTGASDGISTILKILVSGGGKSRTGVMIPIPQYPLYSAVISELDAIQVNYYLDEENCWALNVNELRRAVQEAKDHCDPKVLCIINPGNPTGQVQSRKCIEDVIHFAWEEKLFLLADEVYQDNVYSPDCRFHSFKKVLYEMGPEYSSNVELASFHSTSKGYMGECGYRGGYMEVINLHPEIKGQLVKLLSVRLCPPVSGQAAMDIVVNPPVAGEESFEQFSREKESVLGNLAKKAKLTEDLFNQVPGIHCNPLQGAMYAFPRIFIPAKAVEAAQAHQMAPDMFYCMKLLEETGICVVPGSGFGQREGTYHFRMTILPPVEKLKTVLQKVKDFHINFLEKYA
UniProt Q13888: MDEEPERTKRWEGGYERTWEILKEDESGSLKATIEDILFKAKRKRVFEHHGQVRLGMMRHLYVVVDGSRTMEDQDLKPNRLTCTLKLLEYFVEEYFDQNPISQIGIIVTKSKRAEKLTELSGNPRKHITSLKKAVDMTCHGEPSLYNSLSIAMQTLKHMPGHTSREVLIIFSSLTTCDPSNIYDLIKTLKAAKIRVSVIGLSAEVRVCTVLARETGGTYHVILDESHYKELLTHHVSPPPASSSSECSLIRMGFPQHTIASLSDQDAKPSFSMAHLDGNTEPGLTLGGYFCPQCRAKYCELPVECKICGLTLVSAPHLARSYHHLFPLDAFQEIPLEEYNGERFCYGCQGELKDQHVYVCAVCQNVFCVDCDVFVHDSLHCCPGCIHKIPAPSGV
UniProt P00390: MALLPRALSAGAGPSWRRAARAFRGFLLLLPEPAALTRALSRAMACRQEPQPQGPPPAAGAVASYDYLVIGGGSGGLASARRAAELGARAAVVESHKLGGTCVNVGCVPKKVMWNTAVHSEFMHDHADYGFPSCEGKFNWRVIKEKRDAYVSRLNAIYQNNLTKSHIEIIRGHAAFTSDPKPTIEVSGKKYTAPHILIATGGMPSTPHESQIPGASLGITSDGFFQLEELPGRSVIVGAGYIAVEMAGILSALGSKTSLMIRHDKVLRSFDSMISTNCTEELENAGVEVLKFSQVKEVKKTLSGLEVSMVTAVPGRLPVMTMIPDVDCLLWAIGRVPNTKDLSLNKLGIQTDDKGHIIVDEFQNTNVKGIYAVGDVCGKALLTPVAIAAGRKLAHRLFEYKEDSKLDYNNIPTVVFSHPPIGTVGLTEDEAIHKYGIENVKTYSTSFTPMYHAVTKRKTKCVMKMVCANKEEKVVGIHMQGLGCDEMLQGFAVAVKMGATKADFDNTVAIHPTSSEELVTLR
UniProt P43250, whole entry, looked up: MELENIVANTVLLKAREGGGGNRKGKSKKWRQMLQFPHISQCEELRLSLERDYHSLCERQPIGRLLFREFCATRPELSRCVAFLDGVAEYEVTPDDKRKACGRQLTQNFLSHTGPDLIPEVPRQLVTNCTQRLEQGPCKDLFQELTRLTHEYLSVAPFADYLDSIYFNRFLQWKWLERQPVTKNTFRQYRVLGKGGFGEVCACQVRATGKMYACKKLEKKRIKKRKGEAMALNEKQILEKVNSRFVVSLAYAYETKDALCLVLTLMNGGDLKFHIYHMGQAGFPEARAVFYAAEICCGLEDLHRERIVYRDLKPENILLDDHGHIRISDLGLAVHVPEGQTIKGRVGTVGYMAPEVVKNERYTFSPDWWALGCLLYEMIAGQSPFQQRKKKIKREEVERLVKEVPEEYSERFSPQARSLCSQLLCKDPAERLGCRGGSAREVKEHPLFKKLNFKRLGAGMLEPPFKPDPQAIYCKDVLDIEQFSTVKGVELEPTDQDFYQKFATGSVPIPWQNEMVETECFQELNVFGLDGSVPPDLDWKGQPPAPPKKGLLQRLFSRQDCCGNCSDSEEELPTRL
UniProt Q9Y5Q8: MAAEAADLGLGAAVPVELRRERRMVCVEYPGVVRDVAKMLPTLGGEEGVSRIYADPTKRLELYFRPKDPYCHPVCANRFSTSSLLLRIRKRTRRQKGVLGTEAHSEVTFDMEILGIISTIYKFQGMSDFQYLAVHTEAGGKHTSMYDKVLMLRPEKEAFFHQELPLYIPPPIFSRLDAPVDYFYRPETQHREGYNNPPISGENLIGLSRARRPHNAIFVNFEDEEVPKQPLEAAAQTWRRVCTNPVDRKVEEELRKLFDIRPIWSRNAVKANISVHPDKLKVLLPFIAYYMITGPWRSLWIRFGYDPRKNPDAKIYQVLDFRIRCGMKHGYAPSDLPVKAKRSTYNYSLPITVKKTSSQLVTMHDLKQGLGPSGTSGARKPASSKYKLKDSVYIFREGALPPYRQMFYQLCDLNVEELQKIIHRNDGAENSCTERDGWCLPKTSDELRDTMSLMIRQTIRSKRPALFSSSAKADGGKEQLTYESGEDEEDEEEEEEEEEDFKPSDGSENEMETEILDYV

Compound: CC1Cc2ccccc2N1C(=O)C1CCCN(C1)C(=O)CCl (mixture of isomers) [TRIM25 ligand 11 (diastereomer mixture)]
Assay: probe-labelled cysteine peptide fold change vs DMSO (competition) (log2 fold change); higher = less target engagement (more negative = stronger competition)
Details: THP-1, incubation time: 4 h
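Further: competitive chemoproteomic profiling in live THP-1 cells with an iodoacetamide desthiobiotin (IA-DTB) probe, comparing probe-labelled peptide intensities in compound-treated cells against DMSO-treated controls.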

Row | Target | probe-labelled cysteine peptide fold change (10 µM) | probe-labelled cysteine peptide fold change (50 µM)
1 | GPR108_Q9NPR9_104_DFQDCPLQK (UniProt Q9NPR9) | -0.00493 | -0.0183
2 | GTPBP3_Q969Y2_46_CGIAVIR (UniProt Q969Y2) | -0.0843 | 0.0463
3 | GSPT1_P15170_381+387_GIEEEEILPGFILCDPNNLCHSGR (UniProt P15170) | 0.195 | 0.00535
4 | GSTM3_P21266_39_YTCGEAPDYDR (UniProt P21266) | 0.0109 | -0.1
5 | HADHB_P55084_435_FNNWGGSLSLGHPFGATGCR (UniProt P55084) | -0.0426 | 0.00267
6 | GPT2_Q8TD30_311_LFLLADEVYQDNVYSPDCR (UniProt Q8TD30) | 0.0835 | -0.272
7 | GTF2H2_Q13888_139_AVDMTCHGEPSLYNSLSIAMQTLK (UniProt Q13888) | 0.0294 | 0.0894
8 | GSDMD_P57764_268_CLHNFLTDGVPAEGAFTEDFQGLRAEVETISK (UniProt P57764) | 0.377 | 0.487
9 | GSR_P00390_102_LGGTCVNVGCVPK (UniProt P00390) | 0.0515 | 0.0119
10 | GSDMD_P57764_191_FSLPGATCLQGEGQGHLSQK (UniProt P57764) | 0.0159 | -0.53
11 | GRK6_P43250_57_DYHSLCER (UniProt P43250) | -0.111 | -0.0656
12 | GSR_P00390_467_MVCANKEEK (UniProt P00390) | -0.139 | -0.0254
13 | GTPBP4_Q9BZE4_174_TLLLCGYPNVGK (UniProt Q9BZE4) | -0.0342 | 0.06
14 | GTF3C5_Q9Y5Q8_75_DPYCHPVCANR (UniProt Q9Y5Q8) | 0.361 | 0.133
